Measured values taken from PMC4662854, “Structure and function of the N‐terminal domain of the human mitochondrial calcium uniporter” (EMBO Reports, 2015).
No constants are given. Whether binding was seen depends on the method and setting. Binding seen in cells or lysates may run through a third protein. Some entries that bind do so weakly or less than the wild type. Sequences can lack the tags named with a protein.

Sequences of proteins named here, by UniProt entry; tags and fusion partners are left off. A change or cut given only in a name is not applied to a line headed by its entry. Residues count along the entry.
UniProt Q8NE86, residues 75-165: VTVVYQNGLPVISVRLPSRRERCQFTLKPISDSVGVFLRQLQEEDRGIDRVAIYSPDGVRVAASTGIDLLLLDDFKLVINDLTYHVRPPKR

T1: GST-MCUR1_(138–338) (UniProt Q96AQ8)
T1 sequence: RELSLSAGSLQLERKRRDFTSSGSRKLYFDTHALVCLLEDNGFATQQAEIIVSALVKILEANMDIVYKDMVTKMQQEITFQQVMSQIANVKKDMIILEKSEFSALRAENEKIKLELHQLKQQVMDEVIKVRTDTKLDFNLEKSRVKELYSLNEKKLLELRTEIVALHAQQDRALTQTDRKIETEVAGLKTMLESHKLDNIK

B1: His-MBP-MCUR1_(138–338) (domain or fragment, UniProt Q96AQ8 138-338)
chain: T1 sequence

Legend:
GST-MCUR1_(138–338) = biological target: T1, GST-MCUR1_(138–338); experiment: pull-down; in vitro; GST-tagged bait immobilized on GST affinity resin, His-tagged prey flowed through the resin; Western blot after SDS-PAGE
[1] = biological target: GST-MCU NTD (MCU residues 75-165) (human) (UniProt Q8NE86); experiment: as above

Molecule	binding (GST-MCUR1_(138–338))	binding [1]
His-MCU NTD (MCU residues 75-165) (from UniProt Q8NE86-1 75-165) (domain or fragment)	binds	
B1		binds
